Two molecules from PMC4249601 can be followed below.

Amino acid sequences for entries named in this document (tags omitted).
UniProt P07737: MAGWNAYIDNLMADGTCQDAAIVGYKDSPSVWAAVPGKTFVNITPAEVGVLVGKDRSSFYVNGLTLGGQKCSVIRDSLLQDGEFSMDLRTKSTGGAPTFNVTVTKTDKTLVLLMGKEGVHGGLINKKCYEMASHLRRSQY
UniProt O75874: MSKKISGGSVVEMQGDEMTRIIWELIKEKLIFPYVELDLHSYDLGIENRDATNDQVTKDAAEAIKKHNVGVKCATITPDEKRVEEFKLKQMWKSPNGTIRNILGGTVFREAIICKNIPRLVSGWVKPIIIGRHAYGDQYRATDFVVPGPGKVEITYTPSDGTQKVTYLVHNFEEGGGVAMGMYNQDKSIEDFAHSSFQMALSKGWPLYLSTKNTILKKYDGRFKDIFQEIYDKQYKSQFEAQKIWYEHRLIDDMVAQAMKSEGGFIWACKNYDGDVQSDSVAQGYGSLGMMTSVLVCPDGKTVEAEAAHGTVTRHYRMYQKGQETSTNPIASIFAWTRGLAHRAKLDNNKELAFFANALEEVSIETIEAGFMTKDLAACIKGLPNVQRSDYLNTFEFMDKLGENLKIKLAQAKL

No constants are given. Whether binding was seen depends on the method and setting. In cells and extracts the contact can be indirect. These calls come from enrichment with a bait or labelling near it, and not all partners need be listed.

In this test the target is FLAG-Pfn1 (Profilin1) (UniProt P07737). Nature of the test: affinity purification with mass spectrometry; whole cell extracts of HEK-293T cells transiently expressing FLAG-Pfn1; anti-FLAG antibody on agarose beads; complexes resolved on SDS-PAGE, silver stained, bands retrieved for mass spectrometry.

Consider IDH1 (from UniProt O75874 1-414), for which the binding result is on record as “binds”.

B1: GOT2 (protein, UniProt P00505 30-430)
chain: SSWWTHVEMGPPDPILGVTEAFKRDTNSKKMNLGVGAYRDDNGKPYVLPSVRKAEAQIAAKNLDKEYLPIGGLAEFCKASAELALGENSEVLKSGRFVTVQTISGTGALRIGASFLQRFFKFSRDVFLPKPTWGNHTPIFRDAGMQLQGYRYYDPKTCGFDFTGAVEDISKIPEQSVLLLHACAHNPTGVDPRPEQWKEIATVVKKRNLFAFFDMAYQGFASGDGDKDAWAVRHFIEQGINVCLCQSYAKNMGLYGERVGAFTMVCKDADEAKRVESQLKILIRPMYSNPPLNGARIAAAILNTPDLRKQWLQEVKVMADRIIGMRTQLVSNLKKEGSTHNWQHITDQIGMFCFTGLKPEQVERLIKEFSIYMTKDGRISVAGVTSSNVGYLAHAIHQVTK
As for B1, the binding result was “binds”.
